{
  "source": "paper PMC6892914",
  "about": "“Interactions of Ionic Liquids and Spirocyclic Compounds with Liposome Model Membranes. A Steady-State Fluorescence Anisotropy Study” (Scientific Reports, 2019)",
  "type_in_all_cases": "physicochemical",
  "conditions_in_all_cases": "compound 50 mM, 5 min incubation at RT",
  "key": {"[1]": {"assay": "Steady-state fluorescence anisotropy of DPH-doped liposomes, POPC", "excerpt": "(§1) The technique used in the present study was steady-state fluorescence anisotropy spectroscopy (fluorescence anisotropy or anisotropy in the following text). The technique was utilised to detect organisational changes within the lipid bilayer using a fluorescent 1,6-diphenyl-1,3,5-hexatriene (DPH) probe. DPH is advantageous in the present application due to its high quantum yield and its ability to indicate subtle changes in the lipid acyl chain organisation. For general reviews on the technique, see Shinitzky & Barenholz[18] and Lentz[19]. […] This depolarization can be measured as a numerical value of anisotropy (r), as shown by Eq. 1.1 r=I||−I⊥/IT where I|| and I⊥ are the intensities of emitted light parallel and perpendicular to the plane of excitation, respectively. […]\n(§2) A reference anisotropy value for each pure liposome was determined daily. […] The anisotropy was measured ten times and the mean ± standard deviation was calculated. […] Similar to the reference measurements, the fluorescence anisotropy value after incubation with the ILs was recorded 10 times and the mean ± standard deviation was calculated. […]\n(§3) The fluorescence anisotropy values were measured using a Horiba Jobin Yvon (Northampton, UK) FluoroMax-4 spectrofluorometer, in L-format. […]"}, "[2]": {"assay": "Steady-state fluorescence anisotropy of DPH-doped liposomes, POPC/Chol 75:25", "excerpt": "as §1, §2, §3"}, "[3]": {"assay": "Steady-state fluorescence anisotropy of DPH-doped liposomes, POPC/POPS/Chol 55:20:25", "excerpt": "as §1, §2, §3"}, "[4]": {"assay": "Steady-state fluorescence anisotropy of DPH-doped liposomes, POPC/POPS 80:20", "excerpt": "as §1, §2, §3"}},
  "data": [
    {"smiles": "C1CN=C2CCCN2C1.CS(=O)(=O)O", "note": "[[DBNH][OMs], 1,5-Diazabicyclo[4.3.0]non-5-enium mesylate]", "values": [
      {"measurement": "Relative change in anisotropy, Δr", "setting": "[1]", "value": -34, "unit": "%"},
      {"measurement": "Relative change in anisotropy, Δr", "setting": "[2]", "value": -47, "unit": "%"},
      {"measurement": "Relative change in anisotropy, Δr", "setting": "[3]", "value": -42, "unit": "%"},
      {"measurement": "Relative change in anisotropy, Δr", "setting": "[4]", "value": -46, "unit": "%"}
    ]}
  ]
}
